PubChem BioAssay AID1224830 – NIAID | 2016
Purpose: 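Host factors that control LPS-induced TNF expression in human macrophages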 (primary screen). Cells: human THP-1 monocytic leukaemia cells, TNF dual-luciferase reporter clone, PMA-differentiated to macrophage-like cells. Reagent: siRNA pool against human genes, 50 nM. Time to read-out: LPS for 4 h, given about 3 days after siRNA transfection. Conditions: bacterial LPS (TLR4 ligand), 10 ng/ml. Detection: 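Ratio of firefly to renilla light, scaled to the plate median and expressed as a robust z-score per replicate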. Direction: TNF reporter robust z-score: higher = stronger TNF reporter response to LPS. Rule for the call: 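Each well counts as active if its z-score is over 2.8 or under -1.5; controls are left without a call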.
Shown is an unselected part of about 18,000 reagents tested. Over the whole deposit, about 2,900 (16%) are marked active. 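Calls are made per well; low scores hint the gene aids the LPS response, high scores that it dampens it.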 A number with no mark means an inactive call. Repeated entries: four replicate wells of each siRNA pool.

Depletion of CHAMP1 came out at: TNF reporter robust z-score 0.14.
Silencing of CHAMP1 came out at: TNF reporter robust z-score 1.05.
With knock-down of CHAMP1, the record shows TNF reporter robust z-score -0.78.
CHAMP1 scored TNF reporter robust z-score -0.01.
With knock-down of CNGA1 the results were TNF reporter robust z-score -1.51 (active).
Knock-down of CNGA1 came out at: TNF reporter robust z-score -1.12.
Knock-down of CNGA1 came out at: TNF reporter robust z-score -0.32.
CNGA1 gave TNF reporter robust z-score 0.42.
Knock-down of H2BC9 resulted in: TNF reporter robust z-score 1.95.
Against H2BC9, the entry reads TNF reporter robust z-score 1.74.
Against H2BC9, the values are TNF reporter robust z-score -0.2.
Against H2BC9, the entry reads TNF reporter robust z-score 1.34.
Against CABP4, the entry reads TNF reporter robust z-score 0.64.
Against CABP4 the deposit lists TNF reporter robust z-score 1.04.
CABP4 scored TNF reporter robust z-score 0.43.
After knock-down of CABP4, the screen gave TNF reporter robust z-score 0.71.
Against SPRED3, the entry reads TNF reporter robust z-score 0.71.
Against SPRED3, the entry reads TNF reporter robust z-score 2.27.
Against SPRED3, the entry reads TNF reporter robust z-score 0.23.
Knock-down of SPRED3 resulted in: TNF reporter robust z-score 0.77.
GLRX showed TNF reporter robust z-score -0.15.
For GLRX, the entry reads TNF reporter robust z-score 0.07.
Depletion of GLRX gave: TNF reporter robust z-score -0.27.
GLRX scored TNF reporter robust z-score -0.44.
With knock-down of EPB41L3, the record shows TNF reporter robust z-score 0.29.
After knock-down of EPB41L3, the record shows TNF reporter robust z-score -0.01.
Against EPB41L3, the entry reads TNF reporter robust z-score -0.48.
Silencing of EPB41L3 came out at: TNF reporter robust z-score 0.22.

Records listed so far with an active call (1):
CNGA1 — TNF reporter robust z-score: -1.51 (active)

More results follow:
Against GPRC6A, the values are TNF reporter robust z-score 0.94.
After knock-down of GPRC6A, the screen gave TNF reporter robust z-score -0.45.
Depletion of GPRC6A resulted in: TNF reporter robust z-score 0.54.
Against GPRC6A, the entry reads TNF reporter robust z-score 0.47.
Knock-down of TAB3 resulted in: TNF reporter robust z-score -1.6 (active).
For TAB3, the values are TNF reporter robust z-score -1.3.
With knock-down of TAB3, the screen gave TNF reporter robust z-score -1.32.
Against TAB3, the values are TNF reporter robust z-score -0.92.
BIRC6 gave TNF reporter robust z-score -0.08.
With knock-down of BIRC6, the screen gave TNF reporter robust z-score 0.14.
Knock-down of BIRC6 came out at: TNF reporter robust z-score 0.92.
Depletion of BIRC6 gave: TNF reporter robust z-score 0.05.
CD3E showed TNF reporter robust z-score 2.52.
Knock-down of CD3E gave: TNF reporter robust z-score 0.69.
CD3E showed TNF reporter robust z-score 0.57.
Depletion of CD3E gave: TNF reporter robust z-score 2.63.
Knock-down of CYLD came out at: TNF reporter robust z-score -1.71 (active).
CYLD scored TNF reporter robust z-score -1.97 (active).
After knock-down of CYLD the results were TNF reporter robust z-score -2.07 (active).
